Measurements: publication PMC10809502, “Application of a new MDCKII-MDR1 cell model to measure the extent of drug distribution in vitro at equilibrium for prediction of in vivo unbound brain-to-plasma drug distribution” (Fluids and Barriers of the CNS, 2024)

Protein sequences, listed by entry. Tags and fused reporters are not part of them. Residues count along the entry.
UniProt P02769, 25-607: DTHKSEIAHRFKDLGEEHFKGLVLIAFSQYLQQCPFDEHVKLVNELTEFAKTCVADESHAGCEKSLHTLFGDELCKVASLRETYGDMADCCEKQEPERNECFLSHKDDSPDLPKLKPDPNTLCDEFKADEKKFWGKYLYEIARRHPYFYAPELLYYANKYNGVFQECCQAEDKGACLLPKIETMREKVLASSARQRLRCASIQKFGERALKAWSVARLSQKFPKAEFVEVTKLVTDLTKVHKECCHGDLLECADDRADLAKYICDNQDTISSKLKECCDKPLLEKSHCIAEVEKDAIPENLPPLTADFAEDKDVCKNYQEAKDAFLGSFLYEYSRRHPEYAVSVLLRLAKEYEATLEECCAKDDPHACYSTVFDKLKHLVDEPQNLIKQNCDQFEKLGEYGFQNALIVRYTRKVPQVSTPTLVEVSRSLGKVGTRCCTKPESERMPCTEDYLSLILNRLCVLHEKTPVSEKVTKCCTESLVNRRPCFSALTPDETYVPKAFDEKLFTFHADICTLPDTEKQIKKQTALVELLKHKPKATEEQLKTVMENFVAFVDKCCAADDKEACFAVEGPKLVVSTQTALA

Key:
[1] = target: Bovine Serum Albumin (BSA) (Bos taurus, UniProt P02769); experiment: Fraction unbound in 35 μM BSA, equilibrium dialysis; conditions: for fraction unbound at 5 h, 1 μM: bovine, 35 μM BSA
[2] = Fraction unbound in 20-fold diluted brain homogenate, equilibrium dialysis; conditions: Göttingen, minipig, pH 7.4
[3] = Göttingen minipig; cited from earlier work
P-gp (human MDR1) = experiment: Equilibrium distribution study (in vitro Kp,brain / Kp,uu,brain) across MDCKII-MDR1 cells, BSA apical, brain homogenate basolateral, Uni-L and Bi-L; conditions: dog, % printed

Structure (SMILES) | fraction unbound at 5 h, 1 μM [1] | Predicted fu (%) BSA 35 μM (D = 20) ([1]; calculated with Eq. 2 from fu measured in 100% matrices (ref 20), dilution factor 20) | fraction unbound at 5 h, 1 μM [2] | Kp,uu,brain in vivo [3] | recovery at 29 h, 1 μM (P-gp (human MDR1); pH 7.5, Recovery Bi-L, mass balance Eq. 7, Bi-L) | recovery at 29 h, 1 μM (P-gp (human MDR1); pH 7.5, Recovery Uni-L, mass balance Eq. 6, Uni-L)
CN(C)CCOC(c1ccccc1)c1ccccc1 [Diphenhydramine, diphenhydramine] | > 1 | 94.7% | – | – | – | –
CC(C)NCC(O)COc1ccc(CC(N)=O)cc1 (stereo not shown) [Atenolol, atenolol] | > 1 | – | 0.952 ± 0.021 | 0.10 | 77% | 75%
